# According to patent publication US20170283478 (published 2017):
# Assays:
# [1] = general procedure: Fmoc solid-phase peptide synthesis; Wang resin; MSNT / 1-methyl imidazole (loading of first Fmoc-Gly); settings: whole synthesis, scale of the general procedure 50 gm Wang resin, 30 gm Tentagel SPHB resin, trifluoro acetate salt, run 1
# [2] = general procedure: Fmoc solid-phase peptide synthesis; Tentagel SPHB resin; MSNT / 1-methyl imidazole (loading of first Fmoc-Gly); settings: whole synthesis, scale of the general procedure 50 gm Wang resin, 30 gm Tentagel SPHB resin, trifluoro acetate salt, run 2
# [3] = general procedure: Fmoc solid-phase peptide synthesis; Wang resin (Example 1); Tentagel SPHB resin (Example 2); MSNT / 1-methyl imidazole (loading of first Fmoc-Gly); settings: whole synthesis, scale of the general procedure 50 gm Wang resin, 30 gm Tentagel SPHB resin, trifluoro acetate salt
substance,measurement,setting,value
Liraglutide,crude HPLC purity,[1],27.5%
same,crude HPLC purity,[2],36.89%
same,final HPLC purity,[3]; run 1,average 97%
same,final HPLC purity,[3]; run 2,average 97%
same,final HPLC purity,[3]; run 3,>96%
same,final HPLC purity,[3]; run 4,>96%
